{
  "source": "PubChem BioAssay AID720706",
  "about": "(Broad Institute, 2013)",
  "note": "The other results are listed elsewhere or left out.",
  "data": [
    {"assay": "reduced GFP signal of wild-type E. coli, primary screen, bacterial rRNA inhibitor project, GFP/RFP fluorescence, OD600, single point (AID 720706)", "conditions": "E. coli WT GFP vs humanized-ribosome RFP mutants, 24 h; OD600 change: measured here: OD600 growth, DMSO median 0, no signal -100; RFP signal change: measured here: RFP humanized mutant strains, DMSO median 0, no signal -100, concentration not given here", "units": {"OD600 change": "%", "RFP signal change": "%"}, "values": [
      {"smiles": "CCC(=O)N(c1ccccc1)C1(COC)CCN(CCn2nnn(CC)c2=O)CC1", "OD600 change": 3.87, "RFP signal change": -0.753},
      {"smiles": "CCC(=O)N(c1ccccc1)C1(COC)CCN(CCc2cccs2)CC1", "OD600 change": -0.02, "RFP signal change": 2.35},
      {"smiles": "CC(C)/C=N\\N=C(\\N)N[N+](=O)[O-]", "OD600 change": 4.14, "RFP signal change": -5.3}
    ]}
  ]
}
